Source: PubChem BioAssay AID743266 (National Center for Advancing Translational Sciences (NCATS), 2014)
About 310 (0.076%) of roughly 410,000 compounds were called active. The shares of active, inactive and inconclusive entries below differ from those in the screen. Calls follow the shape of the dose curve; as a rule, active = well fitted activation curve with a large enough effect; inconclusive = small, poorly fitted or top-dose-only effect, or another doubt; inactive = no such curve, though single readings can be large or run the other way. Where the call is inconclusive, the potency comes from a doubtful curve fit.

The chains behind the UniProt entries cited, without tags or fusion partners.
UniProt Q03431, whole entry, looked up: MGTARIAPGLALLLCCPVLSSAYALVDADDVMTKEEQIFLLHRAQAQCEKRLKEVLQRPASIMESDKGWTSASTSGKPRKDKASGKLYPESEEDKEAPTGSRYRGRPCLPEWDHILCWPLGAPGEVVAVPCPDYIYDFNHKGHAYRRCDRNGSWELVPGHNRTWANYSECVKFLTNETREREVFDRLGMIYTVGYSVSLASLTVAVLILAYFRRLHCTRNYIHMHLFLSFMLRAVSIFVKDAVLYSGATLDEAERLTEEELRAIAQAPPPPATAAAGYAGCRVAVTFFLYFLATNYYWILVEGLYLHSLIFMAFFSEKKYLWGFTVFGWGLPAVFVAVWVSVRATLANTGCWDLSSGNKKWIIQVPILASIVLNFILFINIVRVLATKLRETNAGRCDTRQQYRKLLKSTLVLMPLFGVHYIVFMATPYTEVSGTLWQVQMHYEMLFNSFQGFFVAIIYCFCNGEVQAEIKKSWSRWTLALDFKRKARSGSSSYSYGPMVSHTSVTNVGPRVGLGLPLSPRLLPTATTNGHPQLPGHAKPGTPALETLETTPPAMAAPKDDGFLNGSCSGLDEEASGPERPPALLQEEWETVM

molecular target: Parathyroid hormone/parathyroid hormone-related peptide receptor (Homo sapiens) (UniProt Q03431); assay: qHTS for PTHR1 Agonists: Primary Screen; conditions: HEK293 GP2 PTHR1 cells, GloSensor cAMP luminescence, 1 h; activation: at 115 µM (top of the series) unless noted; series mostly up to 115 µM; also: nearly all actives have a fitted effect of over 55% in size
How it was run: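 HEK-293-derived GP2 cells expressing PTHR1 and a GloSensor cAMP reporter, 3,000/well, plated overnight, given luciferin plus IBMX (each 0.5 mM as added) for 1 h at 37 °C, then compound for 1 h at 37 °C. Luminescence was read after 15 min at room temperature.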
Potency is read from the fitted curve at half-maximal effect.

Potency, inactive:
O=C(c1cc(-c2ccc(Br)cc2)nc2ccccc12)N1CCN(c2ccccc2O)CC1
CCOC(=O)Cc1nn(Cc2ccccc2)c(=O)c2ccccc12
O=C1C(=O)c2c(C(=O)c3ccccc3)coc2-c2ccccc21
O=C(CC(c1ccccc1)c1ccccc1)Nc1ccc(Cl)cn1
CC12CC3(C)CC(C)(C1)CC(C(=O)NC(=S)N1CCCC1)(C2)C3
CN(C)CCOc1ccc(/C(=C(/CCCl)c2ccccc2)c2ccccc2)cc1
COc1cc(/C=N/NC(=O)CNc2n[nH]c(=O)[nH]c2=O)ccc1O
Cc1ccc(CNC(=O)CCNS(=O)(=O)c2ccc3c(c2)CCCC(=O)N3)cc1
O=C(Oc1ccc2c(c1)O/C(=C\c1ccncc1)C2=O)c1ccccc1
COc1ccc(-c2ccc3[nH]c4c(c3c2)CCN2C(=O)[C@@H]([C@H](C)O)[C@@H](N(C)C(=O)Nc3cc(Cl)cc(Cl)c3)C[C@@H]42)cc1
O=C(CC1SC(=Nc2ccccc2)N(CCc2ccccn2)C1=O)Nc1ccc(F)cc1 (stereo not given)
COc1cc(/C=C/c2ccc3cccc(OC)c3n2)c(OC(C)=O)c([N+](=O)[O-])c1
COC(=O)c1sccc1S(=O)(=O)N1CCN(c2cccc(C)c2)C(C)C1 (stereo not given)
COc1ccccc1CNC(=O)C1CCC(CNS(=O)(=O)c2cccc3cccnc23)CC1 (stereo not given)
C/C(O)=C(/C#N)c1nc2ccccc2[nH]1
CC1CCN(C(=O)CN2CC(C)Sc3ccccc32)CC1 (stereo not given)
CC1CCN(C(c2ccc(N(C)C)cc2)c2nnnn2Cc2ccc(F)cc2)CC1 (stereo not given)

An excerpt from above in order of molar mass, rising.
Potency, inactive:
CC1CCN(C(=O)CN2CC(C)Sc3ccccc32)CC1 (stereo not given)
O=C(CC(c1ccccc1)c1ccccc1)Nc1ccc(Cl)cn1
COc1cc(/C=C/c2ccc3cccc(OC)c3n2)c(OC(C)=O)c([N+](=O)[O-])c1

Next part:

Potency, inconclusive:
O=C(CSc1nnc(-c2cccs2)o1)Oc1ccccc1 158 µM [activator, single point]
O=C1C(=O)N(CCN2CCOCC2)C(c2cccc(Cl)c2)/C1=C(/O)c1ccc2c(c1)OCO2 (stereo not given) 141 µM [activator, single point]
CC(NC(=O)c1nn(C)c(=O)c2ccccc12)c1ccc(F)cc1 (stereo not given) 39.8 µM [activator, single point]
CCN(CC)C(=O)CN(c1cccc(Br)c1)S(C)(=O)=O 7.08 µM [activator, full curve, poor fit]
Cc1ccccc1C(=O)Nc1ccc(N(C)C)c2ccccc12 126 µM [activator, single point]
CCN(c1ccccc1)c1nnc(NC(=O)Nc2ccccc2F)s1 22.4 µM [activator, single point]
COC(=O)C/C(O)=C(/N=Nc1cccc(C(F)(F)F)c1)C(=O)OC 17.8 µM [activator, single point]
COc1cc(C(=O)NCC(c2cccs2)S(=O)(=O)c2ccc(F)cc2)cc(OC)c1OC (stereo not given) 79.4 µM [activator, partial curve, poor fit]
CCOC(=O)/C=C1\SCC(=O)N1CC(O)CN1C(=O)CS/C1=C/C(=O)OCC (stereo not given) 50.1 µM [activator, partial curve, poor fit]
O=c1cc(-c2ccc(O)c(-c3c(O)cc(O)c4c(=O)cc(-c5ccc(O)cc5)oc34)c2)oc2cc(O)cc(O)c12 126 µM [activator, single point]
O=C(COC(=O)C1CCN(C(=O)c2ccc(Cl)cc2)CC1)NC1CCS(=O)(=O)C1 (stereo not given) 39.8 µM [activator, single point]
Cc1ccc(S(=O)(=O)NCC(=O)OCC(=O)NCc2ccc3c(c2)OCO3)cc1 141 µM [activator, single point]
CN(CCc1cn[nH]c1)C(=O)CC1C(=O)NCCN1Cc1ccccc1C(F)(F)F (stereo not given) 79.4 µM [activator, partial curve, poor fit]
CCN1CCc2c(sc(-n3cccc3)c2C(C)NC(=O)Nc2ccc(C(=O)OC)cc2)C1 (stereo not given) 100 µM [activator, single point]
Nc1nc(Sc2ccc(C(F)(F)F)cc2[N+](=O)[O-])n[nH]1 28.2 µM [activator, partial curve]
CC(C#N)Sc1ccc(S(=O)(=O)N2CCCCC2)cn1 (stereo not given) 22.4 µM [activator, partial curve, poor fit]
CCC(C)(C)NC(=O)C(c1ccccn1)N(C(=O)c1csnn1)c1ccc(C)c(C)c1 (stereo not given) 39.8 µM [activator, full curve, poor fit]
CC(C)CC(OC(=O)c1nsc(Cl)c1Cl)C(=O)NCc1cccs1 (stereo not given) 35.5 µM [activator, single point]
OC(COc1ccc(OCC(O)CN2CCN(Cc3ccccc3)CC2)cc1)CN1CCN(Cc2ccccc2)CC1 (stereo not given) 14.1 µM [activator, partial curve]
CCC(=O)Nc1cccc(NC(=O)CSc2nnc(C3CC3)n2C)c1 15.8 µM [activator, partial curve]
CCCOc1ccc2c3c(c(=O)oc2c1OCCC)CCC3 44.7 µM [activator, single point]
COC(=O)c1ccccc1NC(=O)CSc1n[nH]c(CC(C)C)n1 50.1 µM [activator, partial curve, poor fit]
COCCCNC(=O)CCNS(=O)(=O)c1ccc(C)cc1 0.447 µM [activator, full curve, poor fit]
Cc1cc(C)n2nc(C(=O)OCC(=O)Nc3cc(Cl)ccc3C)nc2n1 31.6 µM [activator, partial curve, poor fit]
CCN(CC)CCCNC(=O)c1sc2nc3n(c(=O)c2c1C)CCCCC3 126 µM [activator, single point]
CCOC(=O)C1CCN(C(=O)Cn2nc(C)n3c(cc4c(OC)cccc43)c2=O)CC1 100 µM [activator, partial curve, poor fit]
CCOc1ccc(-c2cc3c(=O)n(Cc4nc(-c5ccc(OCC)c(OC)c5)oc4C)ccn3n2)cc1Cl 5.62 µM [activator, full curve, poor fit]
CC(Sc1ncn[nH]1)C(=O)NCc1ccccc1 (stereo not given) 44.7 µM [activator, partial curve, poor fit]
Cc1ccccc1C(=O)N1CCC(c2nc(-c3ccc(S(=O)(=O)N4CCCC4)cc3)no2)CC1 89.1 µM [activator, single point]
COc1ccc(NC(=O)NNC(=O)COc2ccc3cc(Br)ccc3c2)cc1OC 126 µM [activator, single point]
OCc1ccccc1-c1ccc2nccn2c1 126 µM [activator, single point]
NC(=O)CN1C(=O)C2C3CCC(C3)C2C1=O (stereo not given) 25.1 µM [activator, single point]
CN(Cc1ccccc1)c1nc2c(S(=O)(=O)c3cccc(Cl)c3)nnn2c2ccsc12 89.1 µM [activator, partial curve, poor fit]
COc1cc(Nc2nc3c(S(=O)(=O)c4ccccc4)nnn3c3ccc(Cl)cc23)cc(OC)c1 89.1 µM [activator, single point]
COc1ccccc1Nc1cc(C(=O)NCCCN(C)C2CCCCC2)c2ccccc2n1 31.6 µM [activator, partial curve]

Looked up by structure from above (2):
Potency, inconclusive:
CC(C)CC(OC(=O)c1nsc(Cl)c1Cl)C(=O)NCc1cccs1 (stereo not given) 35.5 µM [activator, single point]
CCCOc1ccc2c3c(c(=O)oc2c1OCCC)CCC3 44.7 µM [activator, single point]

Following part:

activation, inconclusive:
O=C(c1cccnc1)N1CCN(S(=O)(=O)c2ccc(S(=O)(=O)N3CCCC3)cc2)CC1 -11.7% [activator] [at 57.5 µM]
COC(=O)c1c(NC(=O)/C=C/C(=O)O)sc(C)c1-c1ccc(C(C)C)cc1 -39.4% [activator]
CC1=C(C)CC(C(=O)NC2CCN(C(C)C)CC2)C(C(=O)O)C1 (stereo not given) 42.3% [activator]
COc1cc(OC)cc(C(=O)NNC(=O)c2ccccn2)c1 30.6% [activator]
CCCSc1nnc(-c2ccccc2NC(=O)CC)c(=O)[nH]1 30.2% [activator] [at 57.5 µM]
COc1cccc(NS(=O)(=O)c2ccc3[nH]cc(C(=O)NC(C)c4ccccc4)c(=O)c3c2)c1 (stereo not given) -97.2% [activator]
C[C@@H]1CCCCO[C@@H](CN(C)C(=O)Nc2ccccc2)[C@@H](C)CN([C@H](C)CO)C(=O)c2cc(N(C)C)ccc2O1 -8.57% [activator]
Cc1cc(=O)n(CC(=O)Nc2ccc(Cl)c(Cl)c2)c(-n2nc(C)cc2C)n1 -87.8% [activator]
C=CCNC(=S)N1CCC(C(=O)c2ccc(Cl)cc2)CC1 -65.8% [activator]
Cc1[nH]nc(N=CC2=C(O)CC(c3ccco3)CC2=O)c1-c1ccc(Cl)cc1 (stereo not given) 31.5% [activator] [at 57.5 µM]
CCCC(=O)Nc1sc2c(c1C#N)CCCCC2 -56.9% [activator] [at 57.5 µM]
Cc1cccc(C(=O)Nc2ccc(OCc3cc(=O)n4ccc(C)cc4n3)cc2)c1 34.3% [activator]
Cc1cccc(N/C(N)=N/c2nc(CSc3ccc(Cl)cc3)cc(=O)[nH]2)c1 32.1% [activator]
